The inconclusive results got no clear call from the source; some entries with a clear call stand among them for comparison. Potencies of inconclusive entries are doubtful fits and often do not repeat. Active and inactive are the calls of the source. The call rests on the fitted dose curve; in most records, active means well fitted curve in the direction sought with a large enough effect; inconclusive means small, poorly fitted or top-dose-only effect, or effect the other way, or another doubt; inactive means no such curve, though single readings can be large or run the other way.
test: High Content Assay for Compounds that inhibit the Assembly of the Perinucleolar Compartment: PC3M Caspase 3/7 Activation; settings: PC3M-GFP caspase 3/7 activation, luminescence, 24 h; series mostly up to 46.1 µM
Description: High Content Assay for Compounds that inhibit the Assembly of the Perinucleolar Compartment NIH Chemical Genomics Center [NCGC] NIH Molecular Libraries Probe Centers Network [MLPCN] MLPCN Grant: MH082371-01A2 Assay Submitter (PI): Sui Huang, Northwestern University, Feinberg School of Medicine, Cell and Molecular Biology, Chicago, Illinois. The perinucleolar compartment (PNC) is a non-membrane-bound nuclear subdomain that is associated with but structurally distinct from the nucleolus. The PNC is a heritable trait, in which the number of PNCs per cell in daughter cells often mimics that of their mother cells. The PNC is heterogeneous in shape, is stable through interphase, disassembles during mitosis, and reassembles in early G1. The PNC is concentrated with newly synthesized RNA polymerase III (pol III) RNAs (MRP RNA, RNAse P H1 RNA, hY RNAs[hY1, 2, 5], Alu RNA, and SRP [7SL] RNA) and RNA binding proteins (nucleolin, PTB, CUG-BP, KSRP, Raver1, Raver2, and Rod). […] Extensive in vitro studies have shown that the PNC is unique to tumor cells and preferentially forms in tumor cells derived from solid tissues. Examination of cancer cell lines from various origins and malignant capacities has shown that PNC prevalence correlates with the malignancy of tumors and has the potential to be developed as a pan-cancer prognostic marker. […] Although the PNC is associated with a DNA locus and a handful of components have been identified, much remains to be investigated regarding the structure and function of the PNC and its mechanistic link to cancer. We have previously shown that PNC prevalence reduction is a valid strategy to identify compounds that can be used to study the structure and function of the PNC. It is necessary, however, to create a screening platform that is able to test a large number of compounds in an automated fashion. Here we report the development and robustness of an automated whole-cell phenotypic image-based screening assay that is capable of identifying such compounds. We conducted a followup assay to measure the effects of the lead candidates on Caspase 3/7 activation using a luminescent Caspase kit (Caspase 3/7 Glo). The highly metastatic PC3M-GFP reporter cell line was used in this study.
Caspase 3/7 Assay 1. Cells at a density of 75-90% confluency in T175 flasks were harvested using 7 ml TrypLE Express cell dissociation reagent. After dissociation (5 minutes room temperature incubation) 10 ml of complete media was added to the TrypLE/cell suspension. The liquid was transferred to a 50 ml Conical tube and cells were pelleted at 1000 RPM for 5 min. Supernatant was removed and cells were resuspended to a final density of 150-200 cells/ul in complete media. 2. Cells were plated in 5 ul volume (2000 cells/well) into 1536 well White solid bottom plates and allowed to recover and adhere at 37 C in a humidified 5% CO2 incubator for 4 hours. 3. After 4 hour incubation, compound libraries (23 nl of […] in columns 5-48) were transferred to the plates in duplicate using a 1536 well pintool. Camptothecin positive control (59 uM final) was added to column 2 and 1:3 dilutions of camptothecin was added to column 3. DMSO negative controls were present in columns 1 and 4. 4. After a 24 hour incubation in the 37 C incubator, all wells were treated with 3 ul of Caspase Glo 3/7 reagent using a multidrop combi dispenser (ThermoFisher). Bubbles that formed during dispensing were removed by spinning the plates for 1 minutre at 1500 RPM on a table top centrifuge. Plates were incubated at room temperature for 5 minutes. 5. Luminescencent signal was detected on a Viewlux CCD based imager (PerkinElmer) with a clear filter and a 30 second integration time. The The PC3M cell line stably expressing the PTB-GFP was provided by Sui Huang of Northwestern University. The media and cell culture reagents were purchased from Invitrogen (Carlsbad, CA). […]

Compound | Potency
Cc1cccc(C)c1Nc1c(-c2ccc(N3CCOCC3)cc2)nc2ncccn12 | inactive
Nc1cccc2nc3ccccc3cc12 | inconclusive: 35.5 µM [activator, partial curve]
O=C(N/N=C\c1ccc([N+](=O)[O-])s1)c1cncc(Br)c1 | inconclusive: 35.5 µM [activator, single point]
Cc1cccc(NC2=C/C(=N/S(=O)(=O)c3cccs3)c3ccccc3C2=O)c1 | inconclusive: 14.1 µM [activator, full curve, poor fit]
CCCNC1=C(N(C(C)=O)c2cccc(F)c2)C(=O)c2ccccc2C1=O | inconclusive: 15.8 µM [activator, full curve]
CC(=O)N(C)C1=C(N2CCOCC2)C(=O)c2ccccc2C1=O | inconclusive: 22.4 µM [activator, partial curve]
Cc1ccc(NC2=C/C(=N/S(=O)(=O)c3cccs3)c3ccccc3C2=O)cc1 | inconclusive: 15.8 µM [activator, single point]
COc1ccc(-n2c(SC(C)C(=O)Nc3ncc(Cl)cc3Cl)nc3ccccc32)cc1 (stereo unspecified) | inactive
CN(C)c1ccc(N=Nc2ccccc2C(=O)OCC(=O)NC2CCCC2)cc1 | inactive
CCOC(=O)Cn1c(-c2nonc2NC(=O)c2ccccc2F)nc2ccccc21 | inactive
O=S(=O)(Nc1cc(Sc2cccc3cccnc23)c(O)c2ccccc12)c1ccc(F)cc1 | inconclusive: 31.6 µM [activator, single point]
CNC1=C(N(C(C)=O)c2ccc(Br)cc2)C(=O)c2ccccc2C1=O | inconclusive: 7.94 µM [activator, full curve]
COc1ccc(-c2nc(NC(=O)c3n[nH]c(=O)c4ccccc34)sc2C)cc1 | inactive
Cc1cc[n+](C2=C([O-])c3ccccc3C(=O)/C2=N\S(=O)(=O)c2cccs2)cc1C | inconclusive: 22.4 µM [activator, partial curve]
O=C1C(Nc2ccccc2)=C/C(=N/S(=O)(=O)c2cccs2)c2ccccc21 | inconclusive: 12.6 µM [activator, single point]
CCN(CC)S(=O)(=O)c1ccc(C2=NOC3(C2)N(C)c2ccccc2C3(C)C)cc1 (stereo unspecified) | inactive
COc1ccccc1NC1=C(N2CCCCC2)C(=O)c2ccccc2C1=O | inconclusive: 8.91 µM [activator, full curve]
CSc1nc(-c2ccc(C)cc2)nc(C(Cl)Cl)n1 | inconclusive: 35.5 µM [activator, partial curve]
CCOC(=O)c1c(NC(=O)c2c(-c3ccccc3)noc2C)sc(C)c1-c1ccccc1 | inactive
Cc1c(NC(=O)CSc2nnc3c4ccccc4n(CCc4ccccc4)c3n2)c(=O)n(-c2ccccc2)n1C | inactive
O=C1C(=O)c2ccc(-c3ccccc3)cc2-c2ccccc21 | inconclusive: 15.8 µM [activator, single point]

Shown with tabs: part of the list above.
Compound	Potency
O=C(N/N=C\c1ccc([N+](=O)[O-])s1)c1cncc(Br)c1	inconclusive: 35.5 µM [activator, single point]
Cc1cccc(NC2=C/C(=N/S(=O)(=O)c3cccs3)c3ccccc3C2=O)c1	inconclusive: 14.1 µM [activator, full curve, poor fit]
CCCNC1=C(N(C(C)=O)c2cccc(F)c2)C(=O)c2ccccc2C1=O	inconclusive: 15.8 µM [activator, full curve]
CC(=O)N(C)C1=C(N2CCOCC2)C(=O)c2ccccc2C1=O	inconclusive: 22.4 µM [activator, partial curve]

Source: PubChem BioAssay AID2731 (National Center for Advancing Translational Sciences (NCATS), 2010)
